PubChem BioAssay AID504808 – Drosophila RNAi Screening Center, 2011

- Assay: 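Fly genes required to hold E2F transcription in check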 (primary screen)
- Cells: Drosophila S2 cells
- Reagents: long dsRNA against Drosophila genes
- Read-out: 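Dual luciferase plate measurements; E2F-specific signal taken as firefly over Renilla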
- Scale: E2F firefly: higher = more E2F reporter activity; Renilla normaliser: higher = more normaliser reporter signal
- Rule for the call: 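Called active if the normalised E2F reporter went up by over 50%; the cutoff is arbitrary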
The deposit covers about 21,000 reagents; below is an unselected part of those with a known target gene and a result. Of all reagents, 18 (0.084%) were called active. 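Raw counts without plate normalisation, one of two replicates; the ratio scores behind the calls were not deposited.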 Entries without a mark were called inactive. The numbers tell different reagents against one gene apart. Names joined by + are all predicted targets of the reagent. Not given: the amount of reagent, the time to read-out.

Knock-down of bowl resulted in: E2F firefly, rep 1 = 68791; Renilla normaliser, rep 1 = 3692.
Silencing of Noc2 gave: E2F firefly, rep 1 = 74483; Renilla normaliser, rep 1 = 3927.
For CG33012 #1, the values are E2F firefly, rep 1 = 1.11e5; Renilla normaliser, rep 1 = 4207.
Silencing of CG33012 #2 gave: E2F firefly, rep 1 = 1.12e5; Renilla normaliser, rep 1 = 4596.
Against Cyp4p3, the values are E2F firefly, rep 1 = 1.46e5; Renilla normaliser, rep 1 = 4765.
Grip163 showed E2F firefly, rep 1 = 1.32e5; Renilla normaliser, rep 1 = 5300.
Against Atg5, the entry reads E2F firefly, rep 1 = 8207; Renilla normaliser, rep 1 = 804.
Depletion of Prx2 came out at: E2F firefly, rep 1 = 1.18e5; Renilla normaliser, rep 1 = 7303.
With knock-down of SamDC, the record shows E2F firefly, rep 1 = 79813; Renilla normaliser, rep 1 = 3943.
After knock-down of CG9130 + CG9133 #1, the screen gave E2F firefly, rep 1 = 1.00e5; Renilla normaliser, rep 1 = 4270.
CG9130 + CG9133 #2 showed E2F firefly, rep 1 = 74653; Renilla normaliser, rep 1 = 4116.
For Vps11 the deposit lists E2F firefly, rep 1 = 96266; Renilla normaliser, rep 1 = 3337.
mei-41 showed E2F firefly, rep 1 = 2.83e5; Renilla normaliser, rep 1 = 8108.

6 of these entries in another layout:
Grip163
- E2F firefly, rep 1: 1.32e5
- Renilla normaliser, rep 1: 5300

Atg5
- E2F firefly, rep 1: 8207
- Renilla normaliser, rep 1: 804

Prx2
- E2F firefly, rep 1: 1.18e5
- Renilla normaliser, rep 1: 7303

SamDC
- E2F firefly, rep 1: 79813
- Renilla normaliser, rep 1: 3943

CG9130 + CG9133 #1
- E2F firefly, rep 1: 1.00e5
- Renilla normaliser, rep 1: 4270

CG9130 + CG9133 #2
- E2F firefly, rep 1: 74653
- Renilla normaliser, rep 1: 4116

Continued.
After knock-down of Prosalpha4, the record shows E2F firefly, rep 1 = 1.95e5; Renilla normaliser, rep 1 = 6508.
For Lcp3, the entry reads E2F firefly, rep 1 = 1.39e5; Renilla normaliser, rep 1 = 4673.
Depletion of NetA gave: E2F firefly, rep 1 = 2.45e5; Renilla normaliser, rep 1 = 5815.
Knock-down of Cals gave: E2F firefly, rep 1 = 2101; Renilla normaliser, rep 1 = 972.
sage gave E2F firefly, rep 1 = 50677; Renilla normaliser, rep 1 = 2606.
For CG9010 the deposit lists E2F firefly, rep 1 = 80021; Renilla normaliser, rep 1 = 3243.
For CG6294 + CG6299, the values are E2F firefly, rep 1 = 2.37e5; Renilla normaliser, rep 1 = 7312.
For Ilp2, the values are E2F firefly, rep 1 = 74370; Renilla normaliser, rep 1 = 2961.
Knock-down of sd resulted in: E2F firefly, rep 1 = 1.37e5; Renilla normaliser, rep 1 = 6386.
CG17612 scored E2F firefly, rep 1 = 84381; Renilla normaliser, rep 1 = 3716.
Chchd3 scored E2F firefly, rep 1 = 78751; Renilla normaliser, rep 1 = 6341.
CG10055 scored E2F firefly, rep 1 = 1.24e5; Renilla normaliser, rep 1 = 6108.
After knock-down of CG15406, the screen gave E2F firefly, rep 1 = 1.50e5; Renilla normaliser, rep 1 = 5422.
Arp6 showed E2F firefly, rep 1 = 8083; Renilla normaliser, rep 1 = 696.
With knock-down of ric8b + ric8a, the screen gave E2F firefly, rep 1 = 1.18e5; Renilla normaliser, rep 1 = 5710.
CG9628 gave E2F firefly, rep 1 = 82890; Renilla normaliser, rep 1 = 3750.
CG32109 scored E2F firefly, rep 1 = 1.33e5; Renilla normaliser, rep 1 = 5864.
After knock-down of fzy, the record shows E2F firefly, rep 1 = 79583; Renilla normaliser, rep 1 = 3980.
Depletion of MAGE came out at: E2F firefly, rep 1 = 1.34e5; Renilla normaliser, rep 1 = 5996.
CG15120 scored E2F firefly, rep 1 = 1.33e5; Renilla normaliser, rep 1 = 4354.
Against Tsp47F, the values are E2F firefly, rep 1 = 87644; Renilla normaliser, rep 1 = 4238.
For CG31806, the entry reads E2F firefly, rep 1 = 1.05e5; Renilla normaliser, rep 1 = 4614.
Against Sema1a, the values are E2F firefly, rep 1 = 1.49e5; Renilla normaliser, rep 1 = 4961.
